No constants are given. Whether binding was seen depends on the method and setting. For part of these data: Binding seen in cells or lysates may run through a third protein. Some entries that bind do so weakly or less than the wild type.
Key:
[1] = biological target: GST-C-term Dom of IP3R1 (a.a. 2512-2749) (UniProt P11881); experiment: pull-down; purified GST-Dom 3 or GST-C-term Dom (0.5 μM) as bait with 100 μg COS-1 lysate, 4°C, 25 mM Tris-HCl pH 7.5, 150 mM NaCl, 1% Triton X-100; glutathione-Sepharose 4B; anti-FLAG blot; wild type also with 3 μM ABT-199 or DMSO in the last hour; only the target purified
[2] = biological target: GST-Dom 3 of IP3R1 (a.a. 923-1581) (UniProt P11881); experiment: as above
biotin-TMD-Bcl-2 peptide = biological target: T1, biotin-TMD-Bcl-2 peptide; experiment: pull-down; biotinylated peptide (30 μg) with 0.35 μM purified GST-C-term Dom over night at 4°C, 50 mM Tris-HCl, 200 mM NaCl, 0.1% NP-40, 1% BSA, pH 7.0; peptide held on neutravidin agarose; anti-GST blot; both purified
T1 sequence (peptide, biotin tag (position not stated)): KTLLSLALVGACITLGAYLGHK

The chains behind the UniProt entries cited, without tags or fusion partners. Where a name states a change or a piece, a line headed by the entry shows the natural chain unless it says otherwise. A line that says so, or that is headed by a name, gives the form on record, which may keep a tag or linker. Residues count along the entry.
GST-Dom 3 of IP3R1 (a.a. 923-1581) (P11881, residues 923-1581): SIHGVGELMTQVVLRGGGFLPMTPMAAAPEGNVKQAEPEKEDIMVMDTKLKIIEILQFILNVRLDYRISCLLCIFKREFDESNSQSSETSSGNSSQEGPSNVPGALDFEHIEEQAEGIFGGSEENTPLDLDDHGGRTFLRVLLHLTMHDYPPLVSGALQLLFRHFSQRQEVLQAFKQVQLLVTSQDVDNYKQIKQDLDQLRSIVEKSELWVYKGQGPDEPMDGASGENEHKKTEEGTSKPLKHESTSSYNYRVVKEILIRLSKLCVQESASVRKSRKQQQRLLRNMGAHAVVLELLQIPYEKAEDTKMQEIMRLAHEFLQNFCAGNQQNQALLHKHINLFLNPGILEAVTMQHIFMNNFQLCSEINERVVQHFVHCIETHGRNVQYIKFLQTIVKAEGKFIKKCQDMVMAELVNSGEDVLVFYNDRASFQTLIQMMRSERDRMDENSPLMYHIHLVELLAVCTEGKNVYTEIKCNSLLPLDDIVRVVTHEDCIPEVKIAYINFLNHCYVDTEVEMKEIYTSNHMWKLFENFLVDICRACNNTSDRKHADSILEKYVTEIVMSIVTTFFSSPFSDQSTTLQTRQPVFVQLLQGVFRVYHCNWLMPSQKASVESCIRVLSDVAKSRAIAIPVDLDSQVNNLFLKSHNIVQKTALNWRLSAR
GST-C-term Dom of IP3R1 (a.a. 2512-2749) (P11881, residues 2512-2749): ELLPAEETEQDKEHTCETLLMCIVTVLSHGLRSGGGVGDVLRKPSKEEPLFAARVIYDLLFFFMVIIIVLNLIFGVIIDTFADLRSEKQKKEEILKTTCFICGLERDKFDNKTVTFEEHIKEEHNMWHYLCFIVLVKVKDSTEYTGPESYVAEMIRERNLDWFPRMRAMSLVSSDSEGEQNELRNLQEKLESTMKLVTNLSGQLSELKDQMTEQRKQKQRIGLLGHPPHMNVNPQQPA
UniProt P10415: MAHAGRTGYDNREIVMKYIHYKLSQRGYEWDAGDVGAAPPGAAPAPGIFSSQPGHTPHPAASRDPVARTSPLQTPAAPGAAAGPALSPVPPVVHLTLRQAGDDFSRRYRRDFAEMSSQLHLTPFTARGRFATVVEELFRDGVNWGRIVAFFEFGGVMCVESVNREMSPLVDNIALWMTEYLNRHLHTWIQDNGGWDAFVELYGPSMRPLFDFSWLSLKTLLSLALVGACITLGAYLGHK
3xFLAG-Bcl-2^GR/AA (P10415, form named): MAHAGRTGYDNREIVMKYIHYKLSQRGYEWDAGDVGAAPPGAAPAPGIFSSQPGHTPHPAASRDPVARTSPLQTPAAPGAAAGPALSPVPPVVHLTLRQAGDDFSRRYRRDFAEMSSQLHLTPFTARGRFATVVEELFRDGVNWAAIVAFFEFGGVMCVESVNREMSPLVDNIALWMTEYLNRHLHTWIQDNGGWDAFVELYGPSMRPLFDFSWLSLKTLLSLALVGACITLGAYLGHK

Row | binding [1] | binding [2] | binding (biotin-TMD-Bcl-2 peptide) | Substance
1 | binds | binds | – | 3xFLAG-Bcl-2^GR/AA (from UniProt P10415 1-239)
2 | binds | binds | – | 3xFLAG-Bcl-2^wt (Bcl-2α) (from UniProt P10415 1-239)
3 | – | binds | – | 3xFLAG-Bcl-2^ΔC (from UniProt P10415 1-213) (domain or fragment)
4 | – | – | binds | GST-C-term Dom of IP3R1 (a.a. 2512-2749) (from UniProt P11881 2512-2749) (domain or fragment)

Reference: paper PMC5342447
